For at least one compound, name, drawing or mass did not settle the structure.
Columns and labels:
[1] = tested on: K562 cells; experiment: Glutamine uptake of K562 cultures over four days; assay type: cell-based; details: FIG. 8
Procedure: (§1) Daily cell culture supernatants were collected, and analyzed using the Nova Biomedical Bioprofile Flex Analyzer, which determined glucose, glutamine, lactate, and ammonia levels. For the HIF-1 induction experiments, K562 cells were incubated at 4 million cells/ml in a plastic tube (Falcon 35-2059) with rubber stopper (Kontes Glass Company #882310), with constant stirring at 37 C. At indicated time points, tubes were spun to pellet cells, and the glucose, lactate and pO2 content of supernatant was assessed by syringe sampling through an air-tight rubber stopper. After supernatant sampling, cells were collected and lysates were prepared as described above.
To further investigate what functional role the TCA cycle might play in K562 proliferation, we compared the ability of phenformin-treated cells to metabolize glutamine. In tumor cells, glutaminolysis is important in maintaining TCA cycle activity, as it serves to provide an additional source of TCA cycle intermediates (a-ketoglutarate) to the mitochondria.

[2] = tested on: Akt; experiment: Western blot of phospho-Akt in K562 cells 24 hours after inhibitor treatment; assay type: cell-based; details: relative to untreated, FIG. 2
Description: (§2) Western Blot Analysis. Cells were lysed in radioimmunoprecipitation (RIPA) buffer containing protease inhibitors (Complete Mini, Roche Applied Science), and protease inihibitors cocktails I and II (Sigma). BCA Protein Assay kit (Pierce Biotechnology) was used to assess and standardize protein concentrations. Proteins were resolved using a 4-12% NuPage Bis-Tris polyacrylamide gels (Invitrogen), and transferred to nitrocellulose membranes. Membranes were blocked using 5% nonfat dry skim milk and 0.1% Tween. […] Bands were subsequently detected using horseradish-peroxidase conjugated anti-mouse or anti-rabbit secondary antibodies (GE Healthcare Industries) and enhanced chemiluminescence detection kit (Amersham).
(§3) To characterize the pattern of signaling pathway activation in inhibitor-treated cells, the activity of the Akt and Jak-STAT pathways were examined, two pathways known to be activated by the bcr-abl oncogenic signaling. Proteins were isolated from cells, 24 hours after inhibitor treatment, and assessed for levels of phospho-Akt ([…]) and phospho-STAT5 (tyr694/699), as well as total levels of these proteins as loading controls.

[3] = tested on: K562 cells; experiment: K562 viability under medium depletion of glucose or glutamine (propidium iodide exclusion, FACS); assay type: cell-based; details: K562, 4 days; FIG. 7
Procedure: (§4) K562 cell line was obtained from ATCC.
The viability of K562 cells after variable inhibitor treatment, and selective medium depletion of glucose or glutamine, is shown. Cell viability was determined by propidium iodide exclusion of 10,000 cells (via FACS analysis), taken from each culture each day of experiment.

[4] = tested on: K562 cells; experiment: K562 cell viability by propidium iodide exclusion over four days; assay type: cell-based; details: single dose, 1 mM phenformin, 750 nM imatinib, 25 nM rapamycin, FIG. 1B
Procedure: as §4
K562 cells were treated with a single dose of imatinib, rapamycin, or phenformin, and assessed for cell number (Coulter Counter) and cell viability (by propidium iodide exclusion) over four days.

[5] = tested on: K562 cells; experiment: Aerobic glycolysis: total glucose consumption and lactate production of K562 cultures over four days (Nova Bioprofile Flex Analyzer); assay type: cell-based; details: FIG. 5B
Procedure: as §1
To investigate the metabolic effects of phenformin on K562 cells, we compared the glycolytic activity of the cells in the drug-treated cultures by quantifying total glucose consumption and lactate production over four days (FIGS. 5A and 5B, respectively), by collecting and analyzing daily cell culture supernatants using a Nova Biomedical Bioprofile Flex Analyzer. […] Phenformin was therefore novel in its ability to dissociate aerobic glycolysis from cell proliferation.

[6] = tested on: STAT5; experiment: Western blot of phospho-STAT5 (tyr694/699) in K562 cells 24 hours after inhibitor treatment; assay type: cell-based; details: relative to untreated, FIG. 2
Description: as §2, §3

[7] = tested on: K562 cells; experiment: K562 proliferation, cell number by Coulter Counter over four days after a single dose of inhibitor; details: 1 mM phenformin, 750 nM imatinib, 25 nM rapamycin, FIG. 1A

**Q.** Which glutamine uptake [1] does the source give for CO[C@H]1C[C@@H]2CC[C@@H](C)[C@@](O)(O2)C(=O)C(=O)N2CCCC[C@H]2C(=O)O[C@H]([C@H](C)C[C@@H]2CC[C@@H](O)[C@H](OC)C2)CC(=O)[C@H](C)/C=C(\C)[C@@H](O)[C@@H](OC)C(=O)[C@H](C)C[C@H](C)/C=C/C=C/C=C/1C [rapamycin] here?
**A.** Glutamine uptake was observed

**Q.** What about the Akt phosphorylation [2] of the same compound?
**A.** elevated levels of both phospho-STAT5 and phospho-Akt

**Q.** And the “cell viability in glucose-depleted medium” value [3]?
**A.** little change in viability

**Q.** And the “cell viability in glutamine-depleted medium” value [3]?
**A.** little change in viability

**Q.** What about the cell viability [4] of the same compound?
**A.** indistinguishable from untreated control cells

**Q.** And the lactate production [5]?
**A.** only half the lactate level of untreated cells

**Q.** What about the STAT5 phosphorylation [6] of the same compound?
**A.** elevated levels of both phospho-STAT5 and phospho-Akt

**Q.** What about the “effect on K562 proliferation (cell number)” value [7] of the same compound?
**A.** only a mild effect on K562 proliferation
